Source: patent US11779606B2, “Peptides and combination of peptides of non-canonical origin for use in immunotherapy against different types of cancers” (Immatics Biotechnologies GmbH, priority 2018, dated 2023)

Each substance was assayed on tumor samples (assay: Absolute quantitation of TUMAP copies per cell by nano LC-MS/MS). Details: absolute peptide quantitation in tumor samples.
Design: species or system human
Source text: Absolute quantitation of tumor associated peptides presented on the cell surface The generation of binders, such as antibodies and/or TCRs, is a laborious process, which may be conducted only for a number of selected targets. In the case of tumor-associated and -specific peptides, selection criteria include but are not restricted to exclusiveness of presentation and the density of peptide presented on the cell surface. In addition to the isolation and relative quantitation of peptides as described in EXAMPLE 1, the inventors did analyze absolute peptide copies per cell as described in WO 2016/107740. The quantitation of TUMAP copies per cell in solid tumor samples requires the absolute quantitation of the isolated TUMAP, the efficiency of the TUMAP isolation process, and the cell count of the tissue sample analyzed.
For an accurate quantitation of peptides by mass spectrometry, a calibration curve was generated for each individual peptide using two different isotope labeled peptide variants (one or two isotope-labeled amino acids are included during TUMAP synthesis). These isotopes labeled variants differ from the tumor-associated peptide only in their mass but show no difference in other physicochemical properties (Anderson et al., 2012). For the peptide calibration curve, a series of nano LC-MS/MS measurements was performed to determine the ration of MS/MS signals of titrated (singly isotope-labeled peptide) to constant (doubly isotope labeled peptide) isotope labeled peptides.
The doubly isotope labeled peptide, also called internal standard, was further spiked to each MS sample and all MS signals were normalized to the MS signal of the internal standard to level out potential technical variances between MS experiments.
The calibration curves were prepared in at least three different matrices, i.e. HLA peptide eluates from natural samples similar to the routine MS samples, and each preparation was measured in duplicate MS runs. For evaluation, MS signals were normalized to the signal of the internal standard and a calibration curve was calculated by logistic regression.
For the quantitation of tumor-associated peptides from tissue samples, the respective samples were also spiked with the internal standard; the MS signals were normalized to the internal standard and quantified using the peptide calibration curve.
As for any protein purification process, the isolation of proteins from tissue samples is associated with a certain loss of the protein of interest. To determine the efficiency of TUMAP isolation, peptide/MHC complexes were generated for all TUMAPs selected for absolute quantitation. To be able to discriminate the spiked from the natural peptide/MHC complexes, single-isotope-labelled versions of the TUMAPs were used, i.e. one isotope-labelled amino acid was included in TUMAP synthesis. These complexes were spiked into the freshly prepared tissue lysates, i.e. at the earliest possible point of the TUMAP isolation procedure, and then captured like the natural peptide/MHC complexes in the following affinity purification. Measuring the recovery of the single-labelled TUMAPs therefore allows conclusions regarding the efficiency of isolation of individual natural TUMAPs.
In contrast, the isolation efficiency differs between individual peptides. […] However, it is necessary to analyze each TUMAP individually as the isolation efficiency may not be extrapolated from one peptide to others.
In order to determine the cell count of the tissue samples subjected to absolute peptide quantitation, the inventors applied DNA content analysis. This method is applicable to a wide range of samples of different origin and, most importantly, frozen samples (Alcoser et al., 2011; Forsey and Chaudhuri, 2009; Silva et al., 2013). During the peptide isolation protocol, a tissue sample is processed to a homogenous lysate, from which a small lysate aliquot is taken. […]

Row | Substance | Copies per cell (median)
1 | 1 (KLLDFSTRI; listed as Homo sapiens) [compound 1] | +++ (≥50 = +++)
2 | 2 (ALLDVLVKL; listed as Homo sapiens) [compound 2] | ++++ (≥75 = ++++)
3 | 4 (YLGDSHVLL; listed as Homo sapiens) [compound 4] | + (<25 = +)
4 | 5 (LVWEVVESV; listed as Homo sapiens) [compound 5] | ++++ (≥75 = ++++)
5 | 6 (ALHDSPVYL; listed as Homo sapiens) [compound 6] | + (<25 = +)
6 | 7 (ALWEEVKATSL; listed as Homo sapiens) [compound 7] | + (<25 = +)
7 | 8 (ILQSLVPAA; listed as Homo sapiens) [compound 8] | ++++ (≥75 = ++++)
8 | 9 (FLQEGDLISV; listed as Homo sapiens) [compound 9] | ++ (≥25 = ++)
9 | 10 (SLLDKLSGI; listed as Homo sapiens) [compound 10] | + (<25 = +)
10 | 11 (ALLPHAPEAV; listed as Homo sapiens) [compound 11] | + (<25 = +)
11 | 39 (YIYEDEVRL; listed as Homo sapiens) [compound 39] | ++ (≥25 = ++)
12 | 96 (KIIEDLANTV; listed as Homo sapiens) [compound 96] | ++ (≥25 = ++)
13 | 97 (GLIDDKGTIKL; listed as Homo sapiens) [compound 97] | ++ (≥25 = ++)
14 | 100 (SLGPPPVGV; listed as Homo sapiens) [compound 100] | + (<25 = +)
